From the supplement of paper PMC5407854, “Inhibitor of ppGalNAc-T3-mediated O-glycosylation blocks cancer cell invasiveness and lowers FGF23 levels” (eLife, 2017)
The other results are listed elsewhere or left out. Most values lie at the level of the controls, where differences are scatter.

How the values were obtained:
ppGalNAc-T3 sensor = experiment: T3 sensor activation Q score (MG/GFP ratio z-score vs DMSO controls) (SD units); higher = more sensor activation (inhibition of ppGalNAc-T3 glycosylation); conditions: HEK293 sensor cells; 10 µM; 6 h
Protocol: (§1)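 Cells were treated with compound at 10 uM for 6 h, then MG/GFP ratio was read by flow cytometry (10,000 cells per well, duplicate wells). Q = (R - R_neg)/SD_neg relative to DMSO vehicle controls; the signal rises when the glycosyltransferase is inhibited.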

ppGalNAc-T2 sensor = experiment: T2 sensor activation Q score (MG/GFP ratio z-score vs DMSO controls) (SD units); higher = more sensor activation (inhibition of ppGalNAc-T2 glycosylation); conditions: HEK293 sensor cells; 10 µM; 6 h
Protocol: as §1

Structure (SMILES) | T3 sensor activation Q score (ppGalNAc-T3 sensor) | T2 sensor activation Q score (ppGalNAc-T2 sensor)
COc1ccc2nccnc2c1[N+](=O)[O-] | 1.15 | 0.115
O=C(Nc1ccccc1Cl)NC12CC3CC(CC(C3)C1)C2 | -0.485 | 1.07
CC(C)c1cc(C(C)C)c(S(=O)(=O)NCCO)c(C(C)C)c1 | -0.13 | -0.745
O=C(Nc1ccccc1Br)c1ccco1 | -0.58 | -0.3
Cc1ccc(S(=O)(=O)N2CCN(CCCc3ccccc3)CC2)cc1 | -1.15 | -0.815
CC(=O)N(C1=C(N(C)C)C(=O)c2ccccc2C1=O)c1cccc(Cl)c1 | -0.525 | 0.21
CCN(CC)C(=O)C1CCCN(Cc2ccc(Cl)cc2)C1 (stereo not drawn) | -0.115 | 1.27
CC(=O)c1cc(F)c(N2CCN(C(=O)c3ccccc3F)CC2)cc1C | 0.12 | -0.19
COc1ccc(CN2CCN(c3ccc(Cl)cc3)CC2)c(OC)c1C | 0.44 | 0.255
O=C1CC(N2CCN(c3ncccn3)CC2)C(=O)N1c1cccc(Cl)c1 (stereo not drawn) | -0.44 | 0.155
Cc1n[nH]c(C)c1Sc1ccc(Cl)cc1 | 0.295 | 0.4
Cc1cccc(C)c1NC(=O)Nc1ccc(Cl)cc1 | 0.375 | -0.61
Cc1ccc(NC(=O)COc2ccc([N+](=O)[O-])cc2C)c(Br)c1 | -0.345 | 0.69
Cc1cn(S(=O)(=O)c2cc(Cl)ccc2Cl)cn1 | 0.015 | 0.325
Cc1ccc2[nH]c3c(c2c1)CN(C)CC3 | -0.845 | 0.87
NNC(=O)c1n[nH]c2c1CCCC2 | 0.175 | -0.625
CC(C)(C)c1nc(CN2CCCCC2)cc(CN2CCCCC2)c1O | 0.15 | -1.36
Cc1ccc(C)c(NS(=O)(=O)c2ccc(Cl)cc2)c1 | 0.945 | -1.03
NNc1ncnc2sc3c(c12)CCCC3 | 0.8 | -0.335
CC(C)(C)NC(=O)c1ccccc1C(=O)NC(C)(C)C | -0.165 | -0.635
Cc1nc2nc[nH]c2cc1Br | 0.46 | -0.005
CC1CCCC(NCCN2CCOCC2)C1 (stereo not drawn) | 1.59 | -0.01
CCOc1ccc(NC2=C([N+](=O)[O-])CS(=O)(=O)C2)cc1 | -0.295 | -0.875
Clc1ccc(-c2cn3ccsc3n2)cc1 | 0.38 | 0.665
O=C(O)/C=C1\NC(=O)c2ccccc21 | 2.35 | -0.48

Structure (SMILES) | T3 sensor activation Q score (ppGalNAc-T3 sensor) | T2 sensor activation Q score (ppGalNAc-T2 sensor)
O=[N+]([O-])c1cc2c(cc1CN1CCCCCC1)OCO2 | 0.15 | 0.29
O=C(NCCCO)c1ccc(Cl)cc1 | -0.425 | 0.295
CC1CC(Nc2ccccc2)c2ccccc2N1C(=O)Cc1ccccc1 (stereo not drawn) | -0.88 | -1.56
CCCOC(=O)Nc1nnc(CCC)s1 | -0.345 | -1.1
NCc1ccc(C(=O)NN)cc1 | 1.45 | 0.77
O=C1C(=O)N(CCO)C(c2ccccc2)C1=C(O)c1ccccc1 (stereo not drawn) | -0.905 | 0.54
O=S(=O)(c1cccc(Cl)c1Cl)N1CCCCC1 | -0.045 | 0.03
Cc1ccc(S(=O)(=O)NCc2ccccc2)cc1C | -0.455 | 1.05
Cc1ccc2c(c1)C(=O)C(=O)N2 | 0.3 | -0.53
CCSc1nnc(-c2ccccc2Cl)o1 | -0.055 | 0.66
O=C(N1CCCC1)N1c2ccccc2Sc2ccccc21 | 0.01 | -0.86
O=[N+]([O-])c1ccccc1/C=C/CN1CCN(c2ccccc2F)CC1 | 0.525 | -0.53
Cc1cccc(N2CCN(Cc3ccco3)CC2)c1C | 0.07 | -0.235
Cc1cc(C)c(S(=O)(=O)Nc2ccccc2)cc1S(=O)(=O)Nc1ccccc1 | 0.175 | -0.29
CC(=O)Nc1ccc2c(c1)N(C(C)=O)c1ccccc1CC2 | 0.2 | -0.49
CC(=O)c1ccc(NC(=O)c2cccs2)cc1 | 0.13 | -0.23
NC(=O)c1c(NC(=O)C23CC4CC(CC(C4)C2)C3)sc2c1CCCC2 | -0.075 | -0.2
COc1ccc(-c2nnc(N)s2)cc1 | 0.21 | -0.465
COc1cc2c(cc1OC)CN(Cc1cccs1)CC2 | 0.89 | 0.5
CCCCNS(=O)(=O)c1ccccc1 | -0.015 | -0.72
CCCOc1ccc(C(=O)N2CCCCC2)cc1OC | 0.26 | 0.375
O=C(c1ccc(C(=O)N2CCCCCC2)cc1)N1CCCCCC1 | 1.4 | -0.335
OCc1c(O)cnc2ccccc12 | 2 | 0.455
COc1ccc(OC)c(C(=O)c2ccc(C(=O)O)cc2)c1 | -0.44 | -0.475

Four entries from above, as a markdown table:

| Structure (SMILES) | T3 sensor activation Q score (ppGalNAc-T3 sensor) | T2 sensor activation Q score (ppGalNAc-T2 sensor) |
| --- | --- | --- |
| O=C(O)/C=C1\NC(=O)c2ccccc21 | 2.35 | -0.48 |
| O=[N+]([O-])c1cc2c(cc1CN1CCCCCC1)OCO2 | 0.15 | 0.29 |
| O=C(NCCCO)c1ccc(Cl)cc1 | -0.425 | 0.295 |
| CC1CC(Nc2ccccc2)c2ccccc2N1C(=O)Cc1ccccc1 (stereo not drawn) | -0.88 | -1.56 |
